# For at least one compound, name, drawing or mass did not settle the structure.
# System: TNF-α
# Test: Inhibition of LPS-induced TNF-α production in rats
# Format: in vivo, rat
# Details: serum TNF-α 120 min after initiation of the LPS infusion
# Experimental: Experimental animals. Female Wistar rats (˜250 g) were obtained from the Charles River, Sulzfeld, Germany, and housed in a temperature- (22-24° C.) and moisture-controlled (40-70%) room with a 12 h light-dark cycle (light on from 6:00 A.M. to 6:00 P.M.). The rats were maintained on a standard rodent diet with 140 mmol/kg of sodium, 275 mmol/kg potassium and 23% protein (Altromin International, Lage, Germany) and had free access to water.
# Animal preparation. […] After instrumentation, the animals were housed individually for 7-10 days until the day of the experiment.
# Experimental protocol. Prior to the experiments all rats were adapted to the restraining cage used for the experiments by training. On the day of the experiment, the animal were transferred to a restraining cage, and an intravenous infusion of vehicle solution containing 150 mM glucose was started. The infusion rate was 0.5 ml/h throughout the experiment. […]
# Measurement of TNF-α and IL-10 in plasma: The blood samples were collected in a prechilled test tube with 0.5 mM EDTA, pH 7.4, and 20×10^6 IU/ml aprotinin. […] TNF-α and Il-10 in plasma were determined by an ELISA (Biotrak, Amersham, UK).
# Statistical analyses. […] In case of P<0.05, the differences between corresponding periods are evaluated by unpaired t-tests with Bonferroni's correction of the level of significance.
row,SMILES,LPS-induced TNF-α liberation (effect in words)
1,"N=C(N)NN=CC=Cc1cccn1-c1ccc(Cl)cc1 [Compound 1, [1-(4-chlorophenyl)-1H-pyrrol-2-yl-allylideneamino]guanidinium acetate]",reduced
2,"N=C(N)NN=CC=Cc1cccn1-c1ccccc1Br [Compound 3, [1-(2-bromophenyl)-1H-pyrrol-2-yl-allylideneamino]guanidinium acetate]",reduced

# Source: US8058306B2, “Phenyl pyrrole aminoguanidine derivatives” (Action Pharma A/S, priority 2006, dated 2011)
